Measured values taken from patent US6335047B1, “Epoxydecenal isomers” (Givaudan SA, priority 2000, dated 2002).

Details: in water
[1] = concentration 0.02 parts per billion
[2] = concentration 0.2 parts per billion
[3] = concentration 20.0 parts per billion

Compound: CCCCC[C@@H]1O[C@H]1/C=C/C=O (relative stereo) [(+), trans-4,5-epoxy-(E)-2-decenal]
- Odor/Taste [1]: no smell, no taste
- Odor/Taste [2]: mild metallic smell and taste
- Odor/Taste [3]: clear metallic and bean taste/smell

Compound: CCCCCC1OC1/C=C/C=O (single isomer, unassigned; (-)) [(−), (−)-trans-4. 5-Epoxydec-2-enal]
- Odor/Taste [1]: faint smell, mild metallic taste
- Odor/Taste [2]: strong metallic smell/taste
- Odor/Taste [3]: strong metallic and bean taste/smell

Read-outs that look alike come from different tables or passages of the source.
